These results are taken from patent US20250257401A1, “BIOMARKER FOR TUBEROUS SCLEROSIS COMPLEX WITH NO MUTATION IDENTIFIED IN TSC1 OR TSC2 GENE, AND USES THEREOF” (Guangzhou KingMed Transformative Medicine Institute Co., …, priority 2022, published 2025).

Holding throughout (assay type): cell-based, human
For one experiment, the system named is HaCaT cells. Nature of the experiment: Dose-dependent cell viability, preliminary IC50 experiment (HaCaT).
Another experiment concerns HEK293 cells. Nature of the experiment: Dose-dependent cell viability, preliminary IC50 experiment (HEK293).
A further experiment has as its system IQGAP2-silenced cells. As to the kind of experiment: Cell proliferation of IQGAP2-silenced cells after administration of inhibitors (CCK8). The note with it: IQGAP2-silenced HaCaT and HEK293 cells; each inhibitor in a dose of IC50; FIG. 7 and FIG. 8. The text has this: To verify whether the abnormal IQGAP2 affected cell proliferation, IQGAP2-silenced cells were constructed using an RNAi approach. Since TSC could affect the skin and kidney of the patients, human keratinocytes (HaCaT) cells and human embryonic kidney 293 (HEK 293) cells were chosen as cell models. The shRNA sequence was designed and constructed for the IQGAP2 gene (as shown in Table 1), and IQGAP2-silenced HaCaT cells and IQGAP2-silenced HEK293 cells were obtained by lentiviral transduction. Subsequently, the cell proliferation of IQGAP2-silenced cells was detected at 24, 48, and 72 hours by using Cell Counting Kit 8 (CCK8).
Based upon the above test results, it was hypothesized that IQGAP2 silencing could lead to increased cell proliferation through activating AKT activity and mTORC1 activity. To further verify the pathway, a AKT inhibitor (AKT inhibitor VIII) and mTOR inhibitors (Torkinib and Rapamycin) were used to treat IQGAP2-silenced human keratinocytes (HaCaT cells) and IQGAP2-silenced HEK293 cells, respectively. That is, the pathway was further determined by verifying whether the cell proliferation caused by IQGAP2 silencing can be alleviated by inhibiting the AKT activity and mTORC1 activity (key factors of the mTOR pathway) in IQGAP2-silenced cells with the inhibitors.
Then, HaCaT cells and HEK293 cells were administrated with each inhibitor in a dose of IC50. […]

What is called IC50 is the midpoint of a concentration-inhibition curve. A higher IC50 goes with weaker potency in that assay. For `CC(C)n1nc(-c2cc3cc(O)ccc3[nH]2)c2c(N)ncnc21` [Torkinib], the values for the concentration for half-maximal inhibition (IC50) in the experiment with HaCaT cells and in the experiment with HEK293 cells were 12.5 µM and 0.781 µM, respectively. Besides, the “cell proliferation of IQGAP2-silenced cells” value with IQGAP2-silenced cells is recorded as “reduce the cell proliferation”.
